Measured values as given in patent US20200377564.
For some assays here: A negative result means that nothing was seen under these conditions. Tags and fusion partners may be left off the protein sequences shown. For some assays here: Construct, isoform or probe ends are uncertain for at least one entry.

How the values were obtained:
Experiment in all cases: activity in cells
[1] = system: T1, KRAB-ZF3-ERT2 synTF (Artificial Sequence); settings: 4OHT-induced repression of reporter in HEK293; 4X ZF3 BS; protein in cells; protein details: KRAB and ERT2 fusion; only the site is given
T1 sequence: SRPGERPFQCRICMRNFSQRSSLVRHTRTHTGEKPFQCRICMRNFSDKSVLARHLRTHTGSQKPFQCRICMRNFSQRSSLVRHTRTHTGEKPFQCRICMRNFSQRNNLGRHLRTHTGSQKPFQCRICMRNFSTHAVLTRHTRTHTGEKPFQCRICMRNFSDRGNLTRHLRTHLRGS

[2] = system: T2, ZF3 (ZF3-5)-p65 synTF (Artificial Sequence); settings: protein in cells, protein details: p65(361-551) activation domain fusion, only the site is given
T2 sequence: T1 sequence

[3] = system: T3, ZF3-p65-ERT2 synTF (Artificial Sequence); settings: 4OHT-induced activation in Jurkat and HEK293; 4X ZF3 BS-minCMV-mCherry; protein in cells; protein details: p65 and ERT2 fusion; only the site is given
T3 sequence: T1 sequence

[4] = non-cognate reporter not activated

Row | Sequence | activity on this sequence [1] | activity on this sequence ([2]; HEK293FT integrated reporter, 4 tandem DBMs upstream of minimal promoter, strong activation) | activity on this sequence [3] | activity on this sequence [2, 4]
1 | AGACGTCGAAGTAGCCGTAG (double strand) [Target 3 (ZF3 DBM)] | active | active | active | –
2 | CGGCGTAGCCGATGTCGCGC (double strand) [Target 10 (ZF10 DBM)] | – | – | – | not active
3 | CGTCGAAGTCGAAGTCGACC (double strand) [Target 1 (ZF1 DBM)] | – | – | – | not active
